From PubChem BioAssay AID504467 (National Center for Advancing Translational Sciences (NCATS), 2011)
Among all 330,000 compounds or so, about 7,700 (2.3%) were called active. Inconclusive results, whose numbers are uncertain, are shown with a selection of clear calls. Calls come from the whole dose curve; as a rule, active = well fitted inhibition curve with a large enough effect; inconclusive = small, poorly fitted or top-dose-only effect, or effect the other way; inactive = flat fitted curve, though single readings scatter. Potencies of inconclusive entries are doubtful fits and often do not repeat.

Experiment: qHTS screen for small molecules that inhibit ELG1-dependent DNA repair in human embryonic kidney (HEK293T) cells expressing luciferase-tagged ELG1; note: nearly all actives have a fitted effect of over 55% in size
Conditions: HEK293T ELG1-luciferase reporter, luminescence, 16 h, DNA damage induced by 5-fluorouridine; series mostly up to 46.1 µM
Method in brief: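 HEK293T cells expressing luciferase-tagged ELG1 (2,000/well) received 5-Fluorouridine plus compound or DMSO for 16 hr at 37 °C. Luciferase was read by ONE-Glo luminescence after 30 min at room temperature.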
Potency is the fitted concentration of half-maximal effect.

| Compound | Potency |
| --- | --- |
| COc1cccc(CNc2ccc3c(c2)ncn3C)c1OC | inconclusive: 20.6 µM [activator, partial curve] |
| Cc1cccc(C)c1OCC(=O)Nc1cccc(S(=O)(=O)N2CCCC2)c1 | inactive |
| CC1=CN2C(=N)/C(=C/c3ccco3)C(=O)N=C2S1 | inconclusive: 1.64 µM [activator, full curve] |
| CC(=O)Nc1ccc(N/C=C/C(=O)c2ccc(Cl)cc2)cc1 | inactive |
| CCSC1=NCN(CCCC(=O)O)CN1 | inconclusive: 5.8 µM [activator, partial curve, poor fit] |
| CCn1c(=O)[nH]c2cc(C(=O)Nc3cc(C)cc(C)c3)ccc2c1=O | inconclusive: 20.6 µM [inhibitor, single point] |
| CCOC(=O)C1=C(c2ccc(OC)cc2)C(=O)c2ccccc2C1=O | active: 2.91 µM |
| COc1ccc(OC)c(CCNC(=O)C(C)n2nc(C)c3c(C)n(-c4ccc(C)cc4)nc3c2=O)c1 (configuration not stated) | inactive |
| Cc1ccccc1NC(=S)N(CCN(C)C)C(C)c1ccccn1 (configuration not stated) | inactive |
| CCSc1nnc(NC(=O)c2ccc(C)cc2)s1 | inconclusive: 3.66 µM [activator, partial curve] |
| O=C(NC(=S)Nc1ccccc1Cl)c1ccco1 | inconclusive: 9.2 µM [activator, partial curve] |
| CCOC(=O)c1cnc(SC)nc1N | inconclusive: 16.4 µM [activator, single point] |
| COc1cc(-c2noc(C)c2-c2ccc(N(C)C)nc2)cc(OC)c1OC | inactive |
| CC(=O)Oc1ccccc1C(=O)NC(C)CCc1ccccc1 (configuration not stated) | inconclusive: 20.6 µM [inhibitor, single point] |
| CCCC(=O)Nc1cc(-c2cn3cccnc3n2)ccc1OC | inconclusive: 6.51 µM [activator, single point] |
| Cc1ccsc1C(=O)OCC(=O)NCc1ccc2c(c1)OCO2 | inconclusive: 29.1 µM [activator, single point] |
| O=C(Nc1ccc(N2CCOCC2)cc1)c1ccc(Cl)c(S(=O)(=O)N2CCCC2)c1 | inconclusive: 3.26 µM [inhibitor, partial curve, poor fit] |
| Cc1nc(SCC(=O)N2CCN(c3ccccc3)CC2)c2oc3ccccc3c2n1 | inconclusive: 20.6 µM [inhibitor, single point] |
| CCCc1c(C)nc(N2CCN(c3ccc(F)cc3)CC2)[nH]c1=O | inactive |
| COc1cccc2c1OCC(C(=O)OCc1cccnc1)=C2 | inactive |
| CCCCOc1ccc(C(=O)NCCc2cccs2)cc1 | inconclusive: 9.2 µM [activator, partial curve] |
| COc1ccccc1OCC(O)Cn1c(Br)nc2c1c(=O)[nH]c(=O)n2C (configuration not stated) | inconclusive: 25.9 µM [inhibitor, single point] |
| COc1ccc(NC(=O)c2ccccc2NS(=O)(=O)c2ccc(CNC(C)=O)cc2)c(OC)c1 | inactive |
| Cc1ccc(Nc2nnc(SCn3nnc4ccccc4c3=O)s2)cc1 | inconclusive: 29.1 µM [inhibitor, single point] |

11 of the compounds above, as tab-separated lines.
Compound	Potency
CC1=CN2C(=N)/C(=C/c3ccco3)C(=O)N=C2S1	inconclusive: 1.64 µM [activator, full curve]
CCSC1=NCN(CCCC(=O)O)CN1	inconclusive: 5.8 µM [activator, partial curve, poor fit]
CCOC(=O)C1=C(c2ccc(OC)cc2)C(=O)c2ccccc2C1=O	active: 2.91 µM
Cc1ccccc1NC(=S)N(CCN(C)C)C(C)c1ccccn1 (configuration not stated)	inactive
CCSc1nnc(NC(=O)c2ccc(C)cc2)s1	inconclusive: 3.66 µM [activator, partial curve]
O=C(NC(=S)Nc1ccccc1Cl)c1ccco1	inconclusive: 9.2 µM [activator, partial curve]
CC(=O)Oc1ccccc1C(=O)NC(C)CCc1ccccc1 (configuration not stated)	inconclusive: 20.6 µM [inhibitor, single point]
Cc1nc(SCC(=O)N2CCN(c3ccccc3)CC2)c2oc3ccccc3c2n1	inconclusive: 20.6 µM [inhibitor, single point]
COc1cccc2c1OCC(C(=O)OCc1cccnc1)=C2	inactive
COc1ccc(NC(=O)c2ccccc2NS(=O)(=O)c2ccc(CNC(C)=O)cc2)c(OC)c1	inactive
Cc1ccc(Nc2nnc(SCn3nnc4ccccc4c3=O)s2)cc1	inconclusive: 29.1 µM [inhibitor, single point]

The results go on:

| Compound | Potency |
| --- | --- |
| Clc1ccc(-c2nnc(-c3ccc(Br)cc3)c(N3CCSCC3)n2)cc1 | inconclusive: 0.259 µM [activator, single point] |
| O=C(Nc1ccc(F)cc1F)NC1CC1 | inactive |
| Cc1c(C(=O)NCCSCc2c(F)cccc2Cl)cnn1-c1ccc(Cl)cc1 | inconclusive: 29.1 µM [inhibitor, single point] |
| Cc1ccc(OCCC(=O)Nc2ccc(F)c(Cl)c2)cc1 | inactive |
| COC(=O)c1ccc(C(C(=O)NCc2ccccc2)N(Cc2cccs2)C(=O)c2cnccn2)cc1 (configuration not stated) | inconclusive: 18.4 µM [inhibitor, single point] |
| Cc1cccc(NC(=O)CNC(=O)Cn2ncc(Cl)c(Cl)c2=O)c1C | inconclusive: 32.6 µM [inhibitor, single point] |
| O=C1Nc2c(ccc(Cl)c2Cl)C(=O)C1(F)c1ccccc1 (configuration not stated) | inconclusive: 18.3 µM [activator, partial curve, poor fit] |
| N/C(=N\OC(=O)C(c1ccccc1)c1ccccc1)c1ccccn1 | inconclusive: 32.6 µM [activator, partial curve, poor fit] |
| COc1ccc2cc3c(N)nn(C(=O)C4CCC(C(C)(C)C)CC4)c3nc2c1 (configuration not stated) | active: 1.84 µM |
| CN(C)c1ccc(/C=N/NC(=O)CN(c2ccccc2Cl)S(C)(=O)=O)cc1Br | active: 10.3 µM |
| Cc1c(C(=O)N(C)C)c2cc(Cl)ccc2n1O | inactive |
| COC(=O)c1sc(NC(=O)COc2ccccc2)nc1C | inconclusive: 16.4 µM [activator, partial curve] |
| CC(=O)c1ccc(-n2cc(C#N)c(=O)[nH]c2=O)cc1 | inconclusive: 29.1 µM [activator, single point] |
| COc1ccc(NC(=O)COC(=O)C2CC3C=CC2C3)cc1 (configuration not stated) | inconclusive: 32.6 µM [activator, partial curve, poor fit] |
| Cc1ccc(NC(=O)c2ccco2)c(NC(=O)Cc2cccs2)c1 | inactive |
| CN1C2C=C3C(C#N)=C(N)C(C#N)(C#N)[C@H](c4c(F)cccc4F)[C@H]3C1CC2 (some centres not stated) | inactive |
| O=C(O)CC(C(=O)Nc1ccc(Cl)cc1)N1CCCCCC1 (configuration not stated) | inconclusive: 29.1 µM [activator, partial curve, poor fit] |
| CC12CCC(=O)N1C(C(=O)Nc1cc(Cl)ccc1N1CCOCC1)CS2 (configuration not stated) | inactive |
| Clc1ccc(-c2n[nH]c3c2CCCC3)cc1 | inconclusive: 23.1 µM [activator, single point] |
| Cc1ccc(OCCOCCn2ccnc2)c(Br)c1 | inconclusive: 16.4 µM [activator, partial curve, poor fit] |
| CC1CCCN(C(=O)Cn2nnc(-c3ccc(N(C)C)cc3)n2)C1 (configuration not stated) | inactive |
| O=C(c1ccc(O)cc1)c1ccc(Cl)cc1 | inconclusive: 16.4 µM [activator, single point] |
| Cc1cc(C)nc(/N=C(\N)Nc2ccccc2-c2ccccc2)n1 | inconclusive: 29.1 µM [inhibitor, single point] |
